{"source": "patent US20260116943A1", "about": "(Zealand Pharma A/S, priority 2021, published 2026)", "test": "general procedure: Fmoc solid-phase peptide synthesis"}
{"substance": "H-HGEGTFSSELATILDALAARDFIAWLIATKITDKKKKKK-NH2", "values": [{"measurement": "step yield", "setting": "purification step, total purification yield", "result": "≥35", "unit": "%"}, {"measurement": "isolated mass", "setting": "whole synthesis", "result": "about 1.3 kg"}, {"measurement": "crude HPLC purity", "setting": "whole synthesis, RP-HPLC with UV or MS detection, scale of the general procedure 10 kg peptide resin corresponding to 0.8 mole", "result": "~45", "unit": "%"}, {"measurement": "final HPLC purity", "setting": "whole synthesis, RP-HPLC with UV or MS detection, scale of the general procedure 10 kg peptide resin corresponding to 0.8 mole, run 1", "result": 98.2, "unit": "%"}, {"measurement": "final HPLC purity", "setting": "whole synthesis, RP-HPLC with UV or MS detection, scale of the general procedure 10 kg peptide resin corresponding to 0.8 mole, run 2", "result": 89, "unit": "%"}, {"measurement": "final HPLC purity", "setting": "whole synthesis, RP-HPLC with UV or MS detection, scale of the general procedure 10 kg peptide resin corresponding to 0.8 mole, run 3", "result": 96, "unit": "%"}, {"measurement": "final HPLC purity", "setting": "whole synthesis, RP-HPLC with UV or MS detection, scale of the general procedure 10 kg peptide resin corresponding to 0.8 mole, run 4", "result": 98, "unit": "%"}, {"measurement": "final HPLC purity", "setting": "whole synthesis, RP-HPLC, scale of the general procedure 10 kg peptide resin corresponding to 0.8 mole", "result": "≥97.75", "unit": "%"}]}
